Values from PubChem BioAssay AID1224828 (NIAID, 2016)
Screen: 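Find genes required for NF-kappaB p65 moving into the nucleus after LPS in mouse macrophages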 (primary screen). System: mouse RAW264.7 G9 macrophage reporter cells (GFP-p65, Tnf promoter-mCherry). Reagents: siRNA pool against mouse genes, 100 nM. Timing: 2 days siRNA transfection, then 40 min LPS before fixation. Treatment: LPS (Salmonella minnesota R595) at 10 ng/ml. Read-out: 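Microscopy ratio of nuclear to perinuclear-ring GFP-p65 signal, scaled to the plate median; gene score is the average of two replicate robust z-scores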. Reading the numbers: p65 translocation robust z-score: higher = more nuclear NF-kappaB p65 after LPS than the plate median; nuclear/cytoplasmic p65 ratio: higher = more nuclear NF-kappaB p65. Hit rule: 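Called active when z exceeds 3.3 or falls under -1.56 (median of Tlr4 controls), giving activity score of at least 50; no calls for control wells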. Meaning of the calls: active = hit (p65 shift raised or lowered); inactive = no clear change.
Here is an unselected part of about 17,000 reagents tested. 762 of them (4.5%) were called active. 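Active calls include both raised and lowered p65 entry, mostly lowered; wells with fewer than 50 cells lack a z-score.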 Raw values vary from plate to plate and are shown uncorrected. The numbers tell different reagents against one gene apart. Some reagents were tested in more than one well and are listed for each. Reagent sequences are not shown.

no.	Gene	reagent no.	p65 translocation robust z-score	nuclear/cytoplasmic p65 ratio, rep 1	nuclear/cytoplasmic p65 ratio, rep 2	low cell count flag	outcome
1	Ube2e2 (GeneID 218793)	1		1.44	1.47	fewer than 50 cells per well; well left out of scoring	inactive
2	Htatip2 (GeneID 53415)	1	-0.47	1.37	1.31	enough cells to score	inactive
3	Cck (GeneID 12424)	1	-1.6	1.27	1.15	enough cells to score	active
4	Plat (GeneID 18791)	1	0.36	1.52	1.48	enough cells to score	inactive
5	Coro1b (GeneID 23789)	1	-1.14	1.44	1.56	enough cells to score	inactive
6	Apol8 (GeneID 239552)	1	-0.65	1.53	1.5	enough cells to score	inactive
7	Ggt7 (GeneID 207182)	1	-0.15	1.55	1.37	enough cells to score	inactive
8	Iqcf3 (GeneID 68265)	1	-1.12	1.25	1.18	enough cells to score	inactive
9	Zfy2 (GeneID 22768)	1		1.84	1.06	fewer than 50 cells per well; well left out of scoring	inactive
10	Hlf (GeneID 217082)	1	-0.67	1.61	1.38	enough cells to score	inactive
11	Rnf122 (GeneID 68867)	1	0.69	1.52	1.48	enough cells to score	inactive
12	Cemip2 (GeneID 83921)	1	-0.98	1.24	1.1	enough cells to score	inactive
13	Slc24a4 (GeneID 238384)	1	0.02	1.43	1.24	enough cells to score	inactive
14	Cep43 (GeneID 75296)	1	-0.2	1.44	1.32	enough cells to score	inactive
15	Cyp2j6 (GeneID 13110)	1	0.61	1.62	1.94	enough cells to score	inactive
16	Kdg4 (GeneID 66128)	1	-0.23	1.76	1.55	enough cells to score	inactive
17	Or8b12b (GeneID 258744)	1	-0.78	1.4	1.12	enough cells to score	inactive
18	Ghrh (GeneID 14601)	1	-0.21	1.29	1.46	enough cells to score	inactive
19	Rad9b (GeneID 231724)	1		1.4	1.05	fewer than 50 cells per well; well left out of scoring	inactive
20	Rad9b (GeneID 231724)	2	0.19	1.48	1.47	enough cells to score	inactive
21	Rbak (GeneID 57782)	1	-1.49	1.33	1.28	enough cells to score	inactive
22	Slc22a20 (GeneID 381203)	1	2.89	2.17	1.88	enough cells to score	inactive
23	4930583K01Rik (GeneID 67745)	1		1.07	1.56	fewer than 50 cells per well; well left out of scoring	inactive
24	Tat (GeneID 234724)	1	0.65	1.66	1.56	enough cells to score	inactive
25	Gapt (GeneID 238875)	1	-1.41	1.26	1.32	enough cells to score	inactive
26	Bnipl (GeneID 171388)	1	1.25	1.45	1.7	enough cells to score	inactive

Active calls (from the list above):
Gene	reagent no.	p65 translocation robust z-score	nuclear/cytoplasmic p65 ratio, rep 1	nuclear/cytoplasmic p65 ratio, rep 2	low cell count flag	outcome
Cck (GeneID 12424)	1	-1.6	1.27	1.15	enough cells to score	active

More entries follow.
no.	Gene	reagent no.	p65 translocation robust z-score	nuclear/cytoplasmic p65 ratio, rep 1	nuclear/cytoplasmic p65 ratio, rep 2	low cell count flag	outcome
27	Ttc5 (GeneID 219022)	1	-1.51	1.2	1.05	enough cells to score	inactive
28	V1rd18 (GeneID 404288)	1		1.16	1.34	fewer than 50 cells per well; well left out of scoring	inactive
29	Zfp41 (GeneID 22701)	1	-0.32	1.43	1.49	enough cells to score	inactive
30	Klhl26 (GeneID 234378)	1	-0.34	1.35	1.51	enough cells to score	inactive
31	Selenoo (GeneID 223776)	1	-0.05	1.52	1.48	enough cells to score	inactive
32	Nyx (GeneID 236690)	1	-0.67	1.38	1.31	enough cells to score	inactive
33	Dcaf12l1 (GeneID 245404)	1	0.24	1.45	1.27	enough cells to score	inactive
34	Snx20 (GeneID 71607)	1	-2.21	1.13	1.23	enough cells to score	active
35	Ndufs1 (GeneID 227197)	1	1.75	1.45	1.56	enough cells to score	inactive
36	Eps8l1 (GeneID 67425)	1	0.37	1.64	1.52	enough cells to score	inactive
37	Kif20b (GeneID 240641)	1	0.39	1.54	1.35	enough cells to score	inactive
38	Psmd7 (GeneID 17463)	1		1.29	1.22	fewer than 50 cells per well; well left out of scoring	inactive
39	Rps7 (GeneID 20115)	1	-0.29	1.43	1.19	enough cells to score	inactive
40	Or52n20 (GeneID 259052)	1	-0.86	1.29	1.2	enough cells to score	inactive
41	Or9e1 (GeneID 258530)	1		1.48	1.37	fewer than 50 cells per well; well left out of scoring	inactive
42	Etl4 (GeneID 208618)	1	-0.1	1.66	1.53	enough cells to score	inactive
43	Soat1 (GeneID 20652)	1	0.53	1.56	1.7	enough cells to score	inactive
44	Exoc3 (GeneID 211446)	1	0.45	1.47	1.3	enough cells to score	inactive
45	Chst8 (GeneID 68947)	1	-0.31	1.54	1.74	enough cells to score	inactive
46	Rnft1 (GeneID 76892)	1	-0.79	1.36	1.41	enough cells to score	inactive
47	Paxip1 (GeneID 55982)	1	0.4	1.54	1.43	enough cells to score	inactive
48	Prkg2 (GeneID 19092)	1		2.03	1.33	fewer than 50 cells per well; well left out of scoring	inactive
49	Il31ra (GeneID 218624)	1	0.15	1.5	1.4	enough cells to score	inactive
50	Chpf2 (GeneID 100910)	1		1.31	0.972	fewer than 50 cells per well; well left out of scoring	inactive
51	Unc50 (GeneID 67387)	1		1.49	1.32	fewer than 50 cells per well; well left out of scoring	inactive
52	Nrep (GeneID 27528)	1	-0.19	1.57	1.73	enough cells to score	inactive
53	Slc35f6 (GeneID 74919)	1		1.16	1.07	fewer than 50 cells per well; well left out of scoring	inactive
54	Nppc (GeneID 18159)	1	1.83	2.04	1.76	enough cells to score	inactive
55	Cmtr1 (GeneID 74157)	1		1.38	1.45	fewer than 50 cells per well; well left out of scoring	inactive
56	Sarnp (GeneID 66118)	1		1.32	1.42	fewer than 50 cells per well; well left out of scoring	inactive
57	Plekhh3 (GeneID 217198)	1	-0.66	1.52	1.51	enough cells to score	inactive
58	Wdr62 (GeneID 233064)	1		1.28	1.31	fewer than 50 cells per well; well left out of scoring	inactive
59	Vps37b (GeneID 330192)	1	-0.88	1.42	1.72	enough cells to score	inactive
60	Chrm4 (GeneID 12672)	1	-0.07	1.47	1.36	enough cells to score	inactive
61	Grk1 (GeneID 24013)	1	1.76	2.04	1.55	enough cells to score	inactive
62	Grk1 (GeneID 24013)	1		1.56	1.54	fewer than 50 cells per well; well left out of scoring	inactive
63	Hrc (GeneID 15464)	1	-0.73	1.31	1.31	enough cells to score	inactive
64	Mrpl35 (GeneID 66223)	1	1.19	2.01	1.74	enough cells to score	inactive
65	Tmie (GeneID 20776)	1		1.31	1.17	fewer than 50 cells per well; well left out of scoring	inactive
66	Bik (GeneID 12124)	1	1.33	1.78	1.84	enough cells to score	inactive
67	Eapp (GeneID 66266)	1	1.43	1.59	1.59	enough cells to score	inactive
68	Nedd8 (GeneID 18002)	1	-0.81	1.25	1.32	enough cells to score	inactive
69	Ankrd10 (GeneID 102334)	1	0.29	1.59	1.79	enough cells to score	inactive
70	Ppard (GeneID 19015)	1	-0.93	1.35	1.31	enough cells to score	inactive
71	Fbf1 (GeneID 217335)	1	-0.34	1.48	1.41	enough cells to score	inactive
72	Egr2 (GeneID 13654)	1	-0.41	1.45	1.28	enough cells to score	inactive
73	Drc10 (GeneID 75732)	1		1.34	1.17	fewer than 50 cells per well; well left out of scoring	inactive
74	Upp2 (GeneID 76654)	1	-1.63	1.07	1.14	enough cells to score	active
75	Tppp3 (GeneID 67971)	1		1.28	1.46	fewer than 50 cells per well; well left out of scoring	inactive
